According to publication PMC7845594, “Novel Immune Modulators Enhance Caenorhabditis elegans Resistance to Multiple Pathogens” (mSphere, 2021):
The source gives many values for each of these; only a part stands here.

Test system: C. elegans transcriptome
Test: Transcriptome profiling (Affymetrix microarrays), differentially expressed genes
Format: in vivo, Caenorhabditis elegans
Conditions: downregulated genes
Procedure: To gain additional insight into the effect of LK molecules on C. elegans, young-adult, wild-type worms were treated with each drug at 100 µM for 8 h in the absence of pathogen. RNA was collected, and transcriptome profiling was performed.
Data were determined using Affymetrix microarrays, as described in Materials and Methods. Download Table S3, XLSX file, 0.07 MB.
Transcriptome profiling was performed on ∼6,000 wild-type, young adult worms incubated with either LK molecules or DMSO for 8 h. RNA isolation was performed using TRIzol extraction, followed by cleanup using RNeasy columns according to the manufacturer’s protocol. Each condition was analyzed in triplicate. Microarray data have been deposited in the GEO database, accession number GSE137516. […] Clustering and generation of the heat map was performed using Cluster 3.0 ([98]) and Treeview ([99]), respectively. Fold change of genes were normalized to average fold change of that gene over all clustered conditions. Genes and conditions were clustered using Euclidean distance and average linkages. […] Microarray data for non-LK molecules were collected from GEO omnibus. WormEXP was used as a secondary method for confirming statistical significance of potential pathways stimulated by each of the LK molecules ([100]). Gene ontologies were generated using DAVID ([101], [102]).

## CCN(CC)/N=N/c1ccc(C(=O)O)cc1 [LK35]
Affy_ID 192118_s_at, listed under gene F10C1.7 (LK34, LK35) or F10C1.8 (LK38)
  Fold Change: 0.248
Affy_ID 194255_x_at, listed under gene F22A3.6 (LK34, LK35) or C68743 (LK38)
  Fold Change: 0.4882
Gene B0218.1, Affy_ID 188358_at
  Fold Change: 0.1589
Gene B0228.7, Affy_ID 187261_s_at
  Fold Change: 0.4481
Gene B0379.1, Affy_ID 179086_s_at
  Fold Change: 0.2396
Gene B0507.8, Affy_ID 180569_at
  Fold Change: 0.1901
Gene C01B10.1, Affy_ID 185299_s_at
  Fold Change: 0.4121
Gene F08G2.2, Affy_ID 172835_x_at
  Fold Change: 0.36
Gene F08G2.3, Affy_ID 172899_x_at
  Fold Change: 0.3757
Gene F08G2.4, Affy_ID 178720_at
  Fold Change: 0.4426
Gene F08H9.7, Affy_ID 189904_at
  Fold Change: 0.3207
Gene F08H9.8, Affy_ID 189993_at
  Fold Change: 0.1341
Gene F09C12.7, Affy_ID 172687_x_at
  Fold Change: 0.2585
Gene F10G7.5, Affy_ID 180083_at
  Fold Change: 0.4289
Gene F11E6.3, Affy_ID 179439_s_at
  Fold Change: 0.3249
Gene F11G11.8, Affy_ID 172546_x_at
  Fold Change: 0.3727
Gene F13B6.3, Affy_ID 180766_at
  Fold Change: 0.1108
Gene F13H8.7, Affy_ID 191583_s_at
  Fold Change: 0.4113
Gene F16F9.4, Affy_ID 188201_at
  Fold Change: 0.4466
Gene F17C11.2, Affy_ID 181257_at
  Fold Change: 0.3748
Gene F17C11.4, Affy_ID 180312_at
  Fold Change: 0.2244
Gene F17E9.9, Affy_ID 172851_x_at
  Fold Change: 0.3215
Gene F20A1.1, Affy_ID 172426_x_at
  Fold Change: 0.3786
Gene F20D6.5, Affy_ID 182519_at
  Fold Change: 0.1457
Gene F22B7.9, Affy_ID 187282_at
  Fold Change: 0.4235
Gene F23B2.11, Affy_ID 191274_s_at
  Fold Change: 0.2539
Gene F25E5.8, Affy_ID 183125_at
  Fold Change: 0.3588
Gene F26A3.4, Affy_ID 191521_s_at
  Fold Change: 0.2161
Gene F26G1.7, Affy_ID 172882_x_at
  Fold Change: 0.1768
Gene F27C8.4, Affy_ID 179424_at
  Fold Change: 0.4279
Gene F28H1.2, Affy_ID 188459_s_at
  Fold Change: 0.3051
Gene F32B6.6, Affy_ID 172854_x_at
  Fold Change: 0.1826
Gene F32G8.6, Affy_ID 190591_at
  Fold Change: 0.1491
Gene F36D3.9, Affy_ID 189469_at
  Fold Change: 0.03478
Gene F37A8.4, Affy_ID 188068_at
  Fold Change: 0.0772
Gene F38A3.1, Affy_ID 188281_s_at
  Fold Change: 0.1574
Gene F38E9.1, Affy_ID 180768_at
  Fold Change: 0.3492
Gene F38E11.2, Affy_ID 192323_at
  Fold Change: 0.1463
Gene F40F8.7, Affy_ID 192333_at
  Fold Change: 0.4317
Gene F41B4.1, Affy_ID 175917_at
  Fold Change: 0.3724
Gene F43C11.7, Affy_ID 186263_at
  Fold Change: 0.2993
Gene F44C8.3, Affy_ID 192777_at
  Fold Change: 0.479
Gene F44C8.8, Affy_ID 189999_at
  Fold Change: 0.1733
Gene F44D12.5, Affy_ID 172333_x_at
  Fold Change: 0.1411
Gene F44D12.7, Affy_ID 172327_x_at
  Fold Change: 0.09874
Gene F45D11.15, Affy_ID 186801_s_at
  Fold Change: 0.3181
Gene F45E4.8, Affy_ID 183438_s_at
  Fold Change: 0.2609
Gene F45F2.12, Affy_ID 172874_x_at
  Fold Change: 0.4821
Gene F47B10.2, Affy_ID 191301_s_at
  Fold Change: 0.1104
Gene F48G7.10, Affy_ID 184636_at
  Fold Change: 0.03006
Gene F49E2.2, Affy_ID 179120_s_at
  Fold Change: 0.4547
Gene F49E12.10, Affy_ID 190009_at
  Fold Change: 0.03479
Gene F52H3.7, Affy_ID 192849_s_at
  Fold Change: 0.3536
Gene F53A9.6, Affy_ID 172363_x_at
  Fold Change: 0.2854
